Screen size: about 52,000 sequences; about 210 (0.4%) were called active.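 How the source made its calls: active means gene whose silencing raises cell survival under the drug, median off-target-corrected z-score across its silencing RNAs 2 or more; inactive means the rest.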 The list shows a part of the results.
Test: Resistance to Poly (ADP-Ribose) Polymerase inhibitor: Gene Identification via Genome-wide siRNA Screen
Conditions: mouse BRCA2 R2336H ES cells, olaparib, CellTiter-Glo viability; active compounds read high
Procedure, shortened: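 Mouse BRCA2 R2336H ES cells were reverse-transfected with siRNA (20 nM final), treated at 48 h with 500 nM olaparib, and read by CellTiter-Glo after 72 h. Scores: MAD-based z per siRNA, median per gene, seed off-target correction.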

Sequence | z-score
GGCAAAACAAAGAAUGAAATT against Tesp2 | inactive: -0.345
GGUCAGAACUUGAUGCUGCTT against Fgr | inactive: 1.27
CCCAAAACUUCGUUUGUGUTT against Vezf1 | inactive: 0.53
GCCAUUCUCCAACAAUCGATT against Evc | inactive: 0.905
GGAAGUUCAGAUUUGCUACTT against Hes6 | inactive: 1.77
GCAGGCUAGGAACAGUUAATT against Gpr61 | inactive: -0.489
GGUGUGUUUGGAUAUAGUUTT against Prkdc | inactive: 1.01
GCAUGCGUCAAUUUCUAAATT against Cdon | inactive: 0.362
GGAAGAUGACAGUGCUGUATT against AA408296 | inactive: -0.0381
GGUCUGCACUGAGAAGAUUTT against Hmg20b | inactive: 0.21
CGGAGACAUUUUCCCUAGCTT against Ccng1 | inactive: -0.884
GGUGGUUACUAGGAACAAGTT against MGC59240 | inactive: -1.28
GGUGAGUCAACUGUAUUUCTT against Wdr51a | inactive: -0.637
GGCUUUGGAGAUAAAUUUATT against Nup153 | inactive: -2.27
CCAGUUCUAAGCAAAUUGATT against Cyp4v3 | inactive: 0.209
GGGACUGGAUCCUUGAUAUTT against Ebi3 | inactive: -1.49
GGAACUGGGAGACCUAUAATT against Angptl2 | inactive: -2.79
GCUUCUAUACUGAUUAUGATT against Aldh6a1 | inactive: 0.694
GGGAACAGGCUUGUUGUCUTT against Treml1 | inactive: -0.934
GCAAUCAACUGUCUGUUUUTT against Cyp2b9 | inactive: 0.401
CCUACGGCAAACAGAGACUTT against Prss18 | inactive: 2.06
GGUUCAUUUAUACUUAACCTT against Tgifx1 | inactive: 2.29
GCAAGCAGAGCUGAUUCUUTT against Slc25a24 | inactive: -0.794
GGACUGCUUCUACAAGGUUTT against Uck1 | inactive: 1.06
GGUAAAGCAAGAGAGUAUUTT against Hccs | inactive: 1.46
GGUGCCAUGGCUAUCUGUGTT against 2810439M11Rik | inactive: -2.09
GGAGAUCUCACCGACAUUGTT against Cpt1c | inactive: -1.12

Taken from above:
Value of GGAACUGGGAGACCUAUAATT against Angptl2 under z-score: inactive: -2.79
Value of GGCUUUGGAGAUAAAUUUATT against Nup153 under z-score: inactive: -2.27
Value of GCAGGCUAGGAACAGUUAATT against Gpr61 under z-score: inactive: -0.489
Value of CCUACGGCAAACAGAGACUTT against Prss18 under z-score: inactive: 2.06

The list goes on.

Sequence | z-score
CCUCAAACUAACCACUCACTT against Olfr1045 | inactive: -0.866
GGAUGCCGUCAACAUUGUATT against Psmd4 | inactive: -3.43
GGUCUCUUCGAUGUCCUCATT against Htr6 | inactive: -0.158
GCUGGACUCACAUUUCAGUTT against 4930417G10Rik | inactive: -2.24
GGCUCUUCUCUCGUCCUUGTT against Nif3l1 | inactive: 0.693
GGAAGGAAAUGUGUGAAAUTT against 4930555G01Rik | inactive: -1.25
GGGCCUCAAAAACCUCAUGTT against Prelp | inactive: -0.251
GCUGCUUUACUUAAGAGUUTT against Srf | inactive: -0.654
CCUCUCAGAUGGUAUAUAATT against Olfr520 | inactive: 1.57
GGAAUCGGCAGUCUCAUUCTT against AA408868 | inactive: -1.28
GGAGAAAAAGUCCAAGUCGTT against AJ430384 | inactive: 1.82
CGCCAGCUCUGAAUCCUUUTT against Olfr693 | inactive: 1.91
GCAGAUCGAUUUUACCUCGTT against Bbp | inactive: -0.645
GGUGAAUCAGCGUAAUGUATT against Nrbp | inactive: -1.97
GGGUUUUGGAUGGCGAAUATT against Lgals7 | inactive: -1.19
GGUACCGGCUGGAAAAUGATT against Inpp5b | inactive: -0.0994
GGAUAGUCCAAAGUUUUGUTT against 1110034O07Rik | inactive: 0.918
CGUGCUAGUCAACACCUCCTT against Cnnm4 | inactive: 0.164
GGAAACAUCCAAGAAAAAUTT against Ap1s2 | inactive: -0.0628
GUCCUACGUGCUUAGCUACTT against Endog | inactive: 0.985
GGGCUAGGAGAAACUCCUCTT against 0610010K14Rik | inactive: 0.994
GGAGGUUGAGGCAUUUAAATT against Ogfr | inactive: 0.318
GGUGGAAACAGUUGUUAUGTT against Jag2 | inactive: 0.324
GAAGGAAGAAUAUUGGCCCTT against 2810004A10Rik | inactive: -0.221
GGGCUUCACAAUCCCAUGUTT against Olfr539 | inactive: -1.27
GCAUUUCCUAUAAUCGUUGTT against Olfr360 | inactive: 0.859
GGAGCUAGAGGUAGACCGUTT against D11Wsu47e | inactive: 0.791

Sequence | z-score
GGCUGAAUCGGCAUUUCCATT against Klhdc3 | inactive: -0.807
GGCUUAUUCUCUGGUAUUUTT against Mpv17l | inactive: 0.0481
GGCUAGUUGCCAUGAUGCATT against Spink3 | inactive: -0.773
GCCACCUCAAAACAUAUCATT against Il12rb2 | inactive: -0.147
GGCAAAAUUGGAAAGAGAATT against Gopc | inactive: 0.542
GGAGCAAGACAUAUAGAAATT against Grcc9 | inactive: 0.182
GGCAUUGGAAGAUGCACAGTT against Scp2 | inactive: -0.42
GGGAGAUUUUAGGUUUGGATT against A830053O21Rik | inactive: -1.86
GGAGGCAGUCCUGUGUACATT against Paqr4 | inactive: -1.2
GGAAAGCCUUGGCUACAUGTT against Olfr97 | inactive: -1.89
GUCACUUGGCUUCCAUUGATT against Olfr510 | active: 1.19
GGACAGAAAUGGUAAAGAATT against D3Jfr1 | inactive: 0.298
GCUUUAUAAGGCUAUUGGATT against Rcl1 | inactive: -0.954
GCGCAACCUGUGCUUUUCUTT against Hoxd10 | inactive: -1.6
GGACAAGUUCUGUUGGUAUTT against Zfp275 | inactive: -1.18
GCUGCUGGAGUGCAACUAATT against Tradd | inactive: -0.136
GGACAAAGAUUGAAGAAUGTT against Mib1 | inactive: -0.878
GCUUCAGCUCUGAUUAACGTT against Alox15b | inactive: 0.872
GUCAUCUUCCUCCAGCACCTT against Olig2 | inactive: 0.115
GGGCUCAAGAAAUAAAUCATT against Aspa | inactive: 0.961
CGAGCAUGCUAAAUAUAUUTT against C330029B10Rik | inactive: -0.0722
CCAGCCGUAUUACAACUACTT against Bpnt1 | inactive: -0.777
CCAACUAAGUGAAAUUCCATT against Aspn | inactive: 0.333
GGAGUAUAAUGCCUUGGUUTT against 1810020D17Rik | inactive: -0.799
GCGGUUUUGUGUCAGGGACTT against 4833408A19Rik | inactive: 0.828
GGUCAAAGGUGAAGAGAAATT against Chgb | inactive: -1.58
GGCCAGUGCCUUUGUGAUGTT against Mtnr1b | inactive: -0.281

Sequence | z-score
GGCAGAAGUUAGCAUAAAUTT against 8030499H02Rik | inactive: -0.124
CGCAGAGUUAAUUUCUUGUTT against Rchy1 | inactive: -1.03
GGGAUUAUAGGAAAAUUCUTT against Nhlh1 | inactive: 0.679
GCGCUCCUUCUGUGAUUCATT against Olfm4 | inactive: 0.887
GUAAUUUAUCCUUUGCUGATT against Olfr378 | inactive: -0.145
GCCAUUUACAUUCCCAGGGTT against Gm741 | inactive: 0.238
CCUUAGAACUGAGAUAAGUTT against BC030500 | inactive: 1.36
UUUGUUGAUCUGUUCACCATT against Mbtps2 | inactive: 0.0472
GGAAAUAGAGGAAAGAGAATT against Rbm17 | inactive: 0.542
GGUUCAUGUAGCAGUGGAUTT against 0610042E07Rik | inactive: -1.2
GGAAAUACUGGAUCAUCAATT against Cts3 | inactive: -0.186
CCUUUAAGCUAAAUGAAGGTT against Scube2 | inactive: 0.684
GCCCAGAUUGUGCUAACAUTT against Prkacb | inactive: -3.18
GCUGGCCUAAGAGUCCCUUTT against Klra8 | inactive: -0.274
GCAAAGCUUGAUAACAAUATT against Idh1 | inactive: 0.456
CCACCAAUUUGUAAGUAUATT against D930038D03Rik | inactive: 0.697
GGAUCACUACCAUGAAAACTT against Bace1 | inactive: -0.551
GGCCAAAUCAUGGAUGCAGTT against Comt | inactive: -1.72
GGACGACCAUGAACUUCCCTT against AW061290 | inactive: -0.916
GGAGGGAUCUAAGGAACAGTT against Fgf8 | inactive: 0.0578
CGGCAACUUCUUCAACAUATT against 1110028A07Rik | inactive: -0.104
GCUUUGACUGGAAUGACGGTT against Pex7 | inactive: 0.46
CCCAAGAUACCACUUCAUUTT against 2610034B18Rik | inactive: -0.742
GGAUUUUCUUUCAGAUCCGTT against P2ry12 | inactive: 0.505

Reference: PubChem BioAssay AID1347423 (Functional Genomics Laboratory (NCATS/FGL), 2020)
